We go through five sequences from PMC2873957.

Sequences of proteins named here, by UniProt entry; tags and fusion partners are left off. A change or cut given only in a name is not applied to a line headed by its entry.
UniProt Q01860: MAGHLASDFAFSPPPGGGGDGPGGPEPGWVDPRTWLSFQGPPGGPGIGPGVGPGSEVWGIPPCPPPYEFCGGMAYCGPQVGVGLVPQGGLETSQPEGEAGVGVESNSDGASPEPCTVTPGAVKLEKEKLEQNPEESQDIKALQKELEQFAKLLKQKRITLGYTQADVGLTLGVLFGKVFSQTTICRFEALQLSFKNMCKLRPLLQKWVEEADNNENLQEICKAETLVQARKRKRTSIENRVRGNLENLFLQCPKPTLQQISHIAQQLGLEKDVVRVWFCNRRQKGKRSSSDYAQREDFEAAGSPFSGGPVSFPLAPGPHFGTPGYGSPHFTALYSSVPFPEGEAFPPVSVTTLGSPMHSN

Construct, isoform or probe ends are uncertain for at least one entry. At least one result comes from cells or an extract, where the contact may be indirect. For some assays here: A weaker result is weaker than the reference pair of the same experiment.

The target of data set [1] is OCT4 (human (NCCIT embryonal carcinoma cells)) (UniProt Q01860). The data set is described as follows: biotinylated DNA pull-down, western blot. The settings on record: 300X scrambled oligo, poly-GdC, pull-down: 20 mM HEPES pH 7.9, 20% glycerol, 100 mM KCl, 0.83 mM EDTA, 1.66 mM DTT, 4 C, 8 h, protein in an extract. (In general: A western blot detects proteins with antibodies after separation by electrophoresis.)

Data set [2] shares this target. As to the kind of experiment: EMSA supershift. The settings on record: anti-OCT4 sc-9081, 20-fold unlabelled competitor tested; EMSA: 40 ug NCCIT nuclear extract in 40 ul, 50 nM Cy5 probe, 5 ug poly-dGdC, 1 ug/ul BSA, 1 uM competitor, 6% native PAGE 0.5X TBE; protein in an extract; label: 5' Cy5 on both strands. (In general: In EMSA bound probe runs differently from free probe, usually more slowly.)

As to “GGTTTTTTTTTTCCCATCCCCCACCCCCAGCAGTGCATTATTATGCAGTCACTGCTTTTGTTCCGAGTTCTGAGCCTGCTTCTATTTGCATCGTAACCTCTTTGGGGGCCTTTG (double strand) [USP44 conserved promoter fragment]”, the binding result in data set [1] (label: biotin (5' tag)) was “binds”. Regarding “ATGCGCATATGTAAAAAGCCTTTTTTCCGGC (double strand) [GADD45G_L probe (OCT4 motif at 9-15)]”, the binding result in data set [2] is “binds”.

As for “TTACTTAAATGCGCATATGTAAAAAGCCTTT (double strand) [GADD45G_R probe (OCT4 motif at 17-23)]”, the binding result in data set [2] was “binds”. As to “GGTTTTTTTTTTCTCTCCGACCTGTCGTCACCGGATTTCGCCCCGCCTTCGTTTCTTGGCCCATGCTGTATTCCTTAAATGGACAGATACCATATCGTTGTACCGGCTCTTTTG (double strand) [USP44 scrambled]”, in data set [1] (label: biotin), the binding result is on record as “binds more weakly”.

With “TCTGCAGCTACTTTTGCATTACAATGGCCTTGGTGAG (double strand) [NANOG promoter OCT4-SOX2 probe]”, the binding result in data set [2] is given as “binds”.
